Measurements from PMC3093627 (Research in Pharmaceutical Sciences, 2010).

System: MDCK II cells
Details: after incubation for 100 min

SMILES: CN1CC[C@]23c4c5ccc(O)c4O[C@H]2[C@@H](O)C=C[C@H]3[C@H]1C5 [Morphine]
- Amount of transepithelial movement in the direction of apical to basal: 6%
